PubChem BioAssay AID1224826 – NIAID | 2016

Purpose: 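Genes that change LPS-induced Tnf promoter activity in mouse macrophages when knocked down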 (primary screen)
Cells: RAW264.7 G9 macrophages from mouse bearing reporters for p65 (GFP) and the Tnf promoter (mCherry)
Reagents: siRNA pool against mouse genes, 100 nM
Time to read-out: 16 h of LPS stimulation, after 2 days of siRNA transfection
Treatment: bacterial lipopolysaccharide (Salmonella minnesota R595), 10 ng/ml
Detection: 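Imaged Tnf reporter mCherry in nuclei, minus background, normalised per plate to the median and expressed as robust z-scores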
Direction: Tnf reporter robust z-score: higher = stronger Tnf promoter reporter signal after LPS; Tnf reporter intensity: higher = stronger Tnf promoter reporter signal
Call rule: 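Called active when robust z-score is at most -1.3, matching the median of the Tlr4 knock-down control, or over 3; control wells and wells with under 50 cells never active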
Calls: active = Tnf reporter clearly lowered or raised; inactive = no clear change in Tnf reporter
In all, the deposit lists about 17,000 reagents; shown is a part drawn at random. About 1,110 of them (6.6%) were called active. 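Active means lowered or raised reporter signal; replicate intensities are raw and not normalised per plate.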 A number with no mark means an inactive call. Reagents against one gene are numbered here. A reagent listed more than once was tested more than once; the source does not tell the runs apart.

no.	gene	reagent	Tnf reporter robust z-score	fewer than 50 cells in well	Tnf reporter intensity, replicate 1	Tnf reporter intensity, replicate 2
1	Pdgfrb (GeneID 18596)	1	1.98	enough cells in well	308	285
2	Otud5 (GeneID 54644)	1	-1.23	enough cells in well	113	66.5
3	Eef1d (GeneID 66656)	1	1.52	enough cells in well	336	139
4	Msantd3 (GeneID 66665)	1	1.17	enough cells in well	271	181
5	Cp (GeneID 12870)	1	-0.13	enough cells in well	194	224
6	Skint7 (GeneID 328505)	1	-1.54 (active)	enough cells in well	54.8	76.3
7	Zbtb8b (GeneID 215627)	1	2.45	enough cells in well	219	85.2
8	Klc2 (GeneID 16594)	1	-0.83	enough cells in well	161	116
9	Catsperz (GeneID 67077)	1	-0.01	enough cells in well	190	93.7
10	Ptprh (GeneID 545902)	1	0.29	enough cells in well	338	226
11	Or8g27 (GeneID 258500)	1	3.12 (active)	enough cells in well	275	299
12	Or4x11 (GeneID 258340)	1	-0.13	enough cells in well	203	94.4
13	1700024B05Rik (GeneID 100503856)	1	4.45 (active)	enough cells in well	489	229
14	Sack1g (GeneID 69640)	1		fewer than 50 cells per well; well left out of calls	206	87.2
15	Cldn23 (GeneID 71908)	1	-0.17	enough cells in well	121	213
16	Rbm41 (GeneID 237073)	1	0.72	enough cells in well	242	195
17	Aqp6 (GeneID 11831)	1	2.27	enough cells in well	254	348
18	Zkscan3 (GeneID 72739)	1	-0.36	enough cells in well	103	116
19	Plvap (GeneID 84094)	1		fewer than 50 cells per well; well left out of calls	96.3	113
20	Slc38a1 (GeneID 105727)	1		fewer than 50 cells per well; well left out of calls	38.9	30.1
21	Gabrr2 (GeneID 14409)	1		fewer than 50 cells per well; well left out of calls	67	63.8
22	Psma3 (GeneID 19167)	1	3.97 (active)	enough cells in well	150	299
23	Unk (GeneID 217331)	1	0.22	enough cells in well	131	33.9
24	4921536K21Rik (GeneID 67430)	1	-0.11	enough cells in well	200	109
25	Cd69 (GeneID 12515)	1	-0.64	enough cells in well	186	170
26	Wnt11 (GeneID 22411)	1	0.1	enough cells in well	280	228
27	G6pc3 (GeneID 68401)	1	0.85	enough cells in well	339	295
28	Kazn (GeneID 71529)	1	2.07	enough cells in well	314	277
29	Mcf2 (GeneID 109904)	1	-0.06	enough cells in well	223	230
30	Alyreffm1 (GeneID 70988)	1	-0.32	enough cells in well	210	50.6
31	Creld1 (GeneID 171508)	1	0.33	enough cells in well	215	186
32	E230015B07Rik (GeneID 320001)	1	1.64	enough cells in well	289	194
33	Or6d12 (GeneID 258019)	1		fewer than 50 cells per well; well left out of calls	199	46.1
34	Map3k1 (GeneID 26401)	1	-0.62	enough cells in well	137	144
35	Or8k40 (GeneID 258844)	1	-0.87	enough cells in well	131	108
36	Rtf2 (GeneID 66404)	1		fewer than 50 cells per well; well left out of calls	49.5	48.2
37	Rtf2 (GeneID 66404)	2	-1.95 (active)	enough cells in well	87.5	47
38	Pdk3 (GeneID 236900)	1	-1.47 (active)	enough cells in well	86.7	92
39	Or13a26 (GeneID 258964)	1	1.49	enough cells in well	209	97.9
40	Tmbim4 (GeneID 68212)	1	-0.14	enough cells in well	319	54
41	Arhgef39 (GeneID 230098)	1	-0.55	enough cells in well	179	178
42	Taf1 (GeneID 270627)	1	5.84 (active)	enough cells in well	355	477
43	Arhgap6 (GeneID 11856)	1	-1.3 (active)	enough cells in well	105	82.7
44	Marco (GeneID 17167)	1	-0.21	enough cells in well	254	183
45	H2bc4 (GeneID 68024)	1	-0.78	enough cells in well	180	122
46	Ptprg (GeneID 19270)	1	0.08	enough cells in well	222	146
47	Nt5dc1 (GeneID 319638)	1	0.04	enough cells in well	187	141
48	Med1 (GeneID 19014)	1	-0.65	enough cells in well	190	151
49	Krtap4-7 (GeneID 76444)	1	2.85	enough cells in well	291	127
50	Rplp1 (GeneID 56040)	1	-0.56	enough cells in well	85.6	98.5
51	Foxn4 (GeneID 116810)	1	-1.17	enough cells in well	166	72.2
52	Ciao2a (GeneID 68250)	1	0.86	enough cells in well	237	182
53	Bdh2 (GeneID 69772)	1	-0.58	enough cells in well	190	98.9
54	Ciao1 (GeneID 26371)	1	-1.33 (active)	enough cells in well	82.5	85.4
55	Rcn3 (GeneID 52377)	1	2.21	enough cells in well	250	196
56	Crlf3 (GeneID 54394)	1	0.63	enough cells in well	321	209
57	Or13l2 (GeneID 258272)	1	-0.36	enough cells in well	282	65.1
58	Slc38a11 (GeneID 320106)	1	-0.06	enough cells in well	193	167
59	Prep (GeneID 19072)	1	0.48	enough cells in well	154	147
60	Zmat2 (GeneID 66492)	1		fewer than 50 cells per well; well left out of calls	166	48.1
61	Syt10 (GeneID 54526)	1	2.38	enough cells in well	197	181
62	Prps1l1 (GeneID 75456)	1	0.51	enough cells in well	188	184
63	Prps1l1 (GeneID 75456)	1	1.08	enough cells in well	288	116
64	1700092C17Rik (GeneID 74295)	1	-0.88	enough cells in well	143	57.9
65	Sap30l (GeneID 50724)	1	-0.74	enough cells in well	114	123
66	Smarcd3 (GeneID 66993)	1	0.7	enough cells in well	344	267
67	Or6s1 (GeneID 404319)	1	0.05	enough cells in well	182	119
68	Retreg3 (GeneID 67998)	1	0.64	enough cells in well	274	106
69	Crkl (GeneID 12929)	1	-1.22	enough cells in well	121	88
70	Gen1 (GeneID 209334)	1	-0.57	enough cells in well	133	128
71	Or1ad6 (GeneID 258912)	1		fewer than 50 cells per well; well left out of calls	161	126
72	Guca1b (GeneID 107477)	1	2.05	enough cells in well	425	406
73	Pde6a (GeneID 225600)	1	1	enough cells in well	293	266
74	Huwe1 (GeneID 59026)	1	0.17	enough cells in well	252	233
75	Uqcrq (GeneID 22272)	1	-0.46	enough cells in well	235	61.3
